# Assay results published in PMC7862700.
# Protein sequences, listed by entry. Tags and fused reporters are not part of them. Lines headed by an entry give the natural chain unless they say otherwise; changes in a name come on top.
# UniProt Q01892: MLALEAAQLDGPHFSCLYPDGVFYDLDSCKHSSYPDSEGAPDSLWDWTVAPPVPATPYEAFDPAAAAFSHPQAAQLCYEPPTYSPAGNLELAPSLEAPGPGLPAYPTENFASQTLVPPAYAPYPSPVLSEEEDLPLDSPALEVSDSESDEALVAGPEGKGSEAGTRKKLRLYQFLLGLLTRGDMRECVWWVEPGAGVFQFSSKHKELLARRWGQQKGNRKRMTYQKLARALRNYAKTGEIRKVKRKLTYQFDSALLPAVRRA
# UniProt Q99607: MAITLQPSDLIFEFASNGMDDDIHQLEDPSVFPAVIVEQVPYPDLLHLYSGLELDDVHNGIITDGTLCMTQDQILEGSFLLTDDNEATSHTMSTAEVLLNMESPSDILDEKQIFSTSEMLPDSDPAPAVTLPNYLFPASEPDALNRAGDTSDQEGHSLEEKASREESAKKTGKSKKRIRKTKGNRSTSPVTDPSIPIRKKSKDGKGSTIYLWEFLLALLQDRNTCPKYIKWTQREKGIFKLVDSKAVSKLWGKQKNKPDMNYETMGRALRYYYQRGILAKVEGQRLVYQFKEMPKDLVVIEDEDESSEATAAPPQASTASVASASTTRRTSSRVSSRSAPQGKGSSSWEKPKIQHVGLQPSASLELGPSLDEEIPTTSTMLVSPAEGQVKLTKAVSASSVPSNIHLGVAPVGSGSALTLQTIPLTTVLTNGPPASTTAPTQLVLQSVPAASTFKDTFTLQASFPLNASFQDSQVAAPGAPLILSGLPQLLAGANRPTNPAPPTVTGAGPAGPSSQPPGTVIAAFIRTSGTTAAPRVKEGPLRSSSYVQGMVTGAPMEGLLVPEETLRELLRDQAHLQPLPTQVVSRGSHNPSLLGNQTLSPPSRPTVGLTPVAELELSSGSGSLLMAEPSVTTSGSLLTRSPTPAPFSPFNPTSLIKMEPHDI
# The list shows a part of the results, in another mix than the full data. For part of these data: At the low end of the ranking the order means little.
# Target: T1, EHF (UniProt Q9NZC4)
# T1 sequence: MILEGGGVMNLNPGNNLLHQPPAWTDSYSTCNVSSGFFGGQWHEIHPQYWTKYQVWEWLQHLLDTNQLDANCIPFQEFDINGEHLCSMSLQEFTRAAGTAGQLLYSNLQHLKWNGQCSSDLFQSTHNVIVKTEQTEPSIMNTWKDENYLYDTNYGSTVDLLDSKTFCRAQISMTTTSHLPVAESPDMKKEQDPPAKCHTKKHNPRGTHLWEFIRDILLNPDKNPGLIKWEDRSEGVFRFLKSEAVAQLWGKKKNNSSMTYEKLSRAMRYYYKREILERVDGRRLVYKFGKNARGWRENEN
# Assay: DAPPL (digital affinity profiling via proximity ligation, sequencing)
# Conditions: 10 mM Tris-HCl pH 7.5, 50 mM NaCl, 1 mM DTT, 4% glycerol, room temperature, 30 min; GST-TFs on glutathione beads, 16-mer random dsDNA library, 0.1% …; high values mean tight binding; double strand, one strand shown; scale: fold enrichment (6-mer frequency, TF over GST control)
row,Sequence,binding signal
1,TCACAA,1.11
2,CAATTA,1.07
3,TCAACT,1.35
4,GATAGC,1.1
5,TGGCAC,1.26
6,CACTTT,1.36
7,TCTGTA,1.15
8,ACTCAC,1.24
9,CGCTTA,1.18
10,GTACCT,1.29
11,CAAAGC,0.986
12,TGGACA,1.05
13,CTCATA,1.27
14,CAATCT,1.17
15,AATGTT,1.56
16,ATCTCA,1.25
17,ATATAG,1.22
18,TCTTTC,1.43
19,CTACTA,1.33
20,CCTTCT,1.67
21,AATTAT,1.23
22,CTATCA,0.991
23,TCTAGG,0.979
24,GTACCC,1.16
25,CGACCA,1.28
26,ACCCTG,0.996
27,TCATTA,1.09
28,AACTTG,1.14

# Target: SPIB (UniProt Q01892)
# Assay: as above
# Conditions: 10 mM Tris-HCl pH 7.5, 50 mM NaCl, 1 mM DTT, 4% glycerol, room temperature, 30 min; GST-TFs on glutathione beads, 16-mer random dsDNA library, 0.1% …; high values mean tight binding; double strand, one strand shown; scale: fold enrichment (6-mer frequency, TF over GST control)
row,Sequence,binding signal
1,TCAACT,1.3
2,ATACGG,1.23
3,GATAGC,0.984
4,TTTTGG,1.63
5,CCTCAA,1.42
6,CCGGCC,1.18
7,TGCATA,1.11
8,TGGACA,1.08
9,AAAGGG,1.19
10,CTCATA,1.48
11,TACTCA,1.36
12,AAAACC,1.19
13,ATCTCA,1.19
14,CCTTCT,1.56
15,CTTAAC,1.4
16,CTATCA,1.05
17,TCTAGG,1.11
18,CGACCA,1.16
19,CTTTGC,1.32
20,TTACAG,1.29

# Target: ELF4 (UniProt Q99607)
# Assay: as above
# Conditions: 10 mM Tris-HCl pH 7.5, 50 mM NaCl, 1 mM DTT, 4% glycerol, room temperature, 30 min; GST-TFs on glutathione beads, 16-mer random dsDNA library, 0.1% …; high values mean tight binding; double strand, one strand shown; scale: fold enrichment (6-mer frequency, TF over GST control)
row,Sequence,binding signal
1,TCACAA,1.12
2,CAATTA,1.14
3,TCAACT,1.27
4,ATACGG,1.2
5,GATAGC,1.06
6,TGGCAC,1.25
7,TTTTGG,1.41
8,CACTTT,1.3
9,CCTCAA,1.38
10,TCTGTA,1.18
11,ACTCAC,1.24
12,CCGGCC,1.08
13,CGCTTA,1.29
14,TGCATA,1.2
15,GTACCT,1.23
16,CAAAGC,1.05
17,TGGACA,1.13
18,AAAGGG,1.19
19,CTCATA,1.41
20,CAATCT,1.2

row,Sequence,binding signal
1,AATGTT,1.57
2,TACTCA,1.23
3,AAAACC,1.19
4,ATCTCA,1.18
5,ATATAG,1.09
6,TCTTTC,1.32
7,CTACTA,1.29
8,CCTTCT,1.76
9,AATTAT,1.16
10,CTTAAC,1.28
11,CTATCA,1.15
12,TCTAGG,1.13
13,GTACCC,1.06
14,CGACCA,1.39
15,CTTTGC,1.36
16,ACCCTG,1.16
17,TCATTA,1.15
18,TTACAG,1.26
19,AACTTG,1.28
